Measured values as given in PMC3805512.
These are yes or no findings as the source states them, for the method shown. Binding seen in cells or lysates may run through a third protein. These calls come from enrichment with a bait or labelling near it, and not all partners need be listed. For some assays here: No binding means not detected with the bait.

Columns and labels:
[1] = target: glutathione S-transferase (GST); assay: affinity purification with mass spectrometry; GST-rM180 or GST (50 µg) on glutathione-Sepharose 4B beads, incubated with 10 mg of the soluble (cytosolic) protein extract of SaOS-2 cells (pre-cleared with glutathione resin) for 1 h at 4°C; washed (50 mM Tris-HCl pH 7.5, 150 mM NaCl, 10% glycerol, 0.2% Triton X-100); eluate on 2D-PAGE, Coomassie spots identified by MALDI-TOF MS; only the target purified
[2] = target: GST-rM180 (glutathione S-transferase fusion of recombinant mouse amelogenin M180) (mouse); assay: as above

- binding [1]: no binding
- binding [2]: binds
B1: myosin regulatory light chain 12A (protein, UniProt P19105 1-171)
chain: MSSKRTKTKTKKRPQRATSNVFAMFDQSQIQEFKEAFNMIDQNRDGFIDKEDLHDMLASLGKNPTDEYLDAMMNEAPGPINFTMFLTMFGEKLNGTDPEDVIRNAFACFDEEATGTIQEDYLRELLTTMGDRFTDEEVDELYREAPIDKKGNFNYIEFTRILKHGAKDKDD
